Experimental findings from publication PMC3125213 are described below.

Chains of the proteins cited; added tags and fusions are not shown.
UniProt Q16643: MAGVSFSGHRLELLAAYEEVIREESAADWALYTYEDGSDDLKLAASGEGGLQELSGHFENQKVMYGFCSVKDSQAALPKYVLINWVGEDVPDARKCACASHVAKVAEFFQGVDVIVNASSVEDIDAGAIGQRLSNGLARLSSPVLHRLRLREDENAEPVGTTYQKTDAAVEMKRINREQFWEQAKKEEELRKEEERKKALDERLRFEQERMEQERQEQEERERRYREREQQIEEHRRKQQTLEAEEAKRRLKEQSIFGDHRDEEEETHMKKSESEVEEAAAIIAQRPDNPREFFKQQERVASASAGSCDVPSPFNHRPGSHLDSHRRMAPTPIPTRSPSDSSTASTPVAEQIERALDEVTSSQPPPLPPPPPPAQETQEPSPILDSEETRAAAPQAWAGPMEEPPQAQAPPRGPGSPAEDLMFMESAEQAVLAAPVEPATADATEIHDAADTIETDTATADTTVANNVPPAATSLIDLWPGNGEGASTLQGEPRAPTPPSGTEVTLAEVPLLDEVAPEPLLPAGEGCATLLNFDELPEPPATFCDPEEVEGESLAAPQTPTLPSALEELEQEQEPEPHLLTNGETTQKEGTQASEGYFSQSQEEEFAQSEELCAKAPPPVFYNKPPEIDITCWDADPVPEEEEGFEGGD
UniProt P17096: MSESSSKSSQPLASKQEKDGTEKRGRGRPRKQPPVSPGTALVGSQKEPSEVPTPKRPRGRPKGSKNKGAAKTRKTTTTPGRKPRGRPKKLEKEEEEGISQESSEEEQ
UniProt P09874: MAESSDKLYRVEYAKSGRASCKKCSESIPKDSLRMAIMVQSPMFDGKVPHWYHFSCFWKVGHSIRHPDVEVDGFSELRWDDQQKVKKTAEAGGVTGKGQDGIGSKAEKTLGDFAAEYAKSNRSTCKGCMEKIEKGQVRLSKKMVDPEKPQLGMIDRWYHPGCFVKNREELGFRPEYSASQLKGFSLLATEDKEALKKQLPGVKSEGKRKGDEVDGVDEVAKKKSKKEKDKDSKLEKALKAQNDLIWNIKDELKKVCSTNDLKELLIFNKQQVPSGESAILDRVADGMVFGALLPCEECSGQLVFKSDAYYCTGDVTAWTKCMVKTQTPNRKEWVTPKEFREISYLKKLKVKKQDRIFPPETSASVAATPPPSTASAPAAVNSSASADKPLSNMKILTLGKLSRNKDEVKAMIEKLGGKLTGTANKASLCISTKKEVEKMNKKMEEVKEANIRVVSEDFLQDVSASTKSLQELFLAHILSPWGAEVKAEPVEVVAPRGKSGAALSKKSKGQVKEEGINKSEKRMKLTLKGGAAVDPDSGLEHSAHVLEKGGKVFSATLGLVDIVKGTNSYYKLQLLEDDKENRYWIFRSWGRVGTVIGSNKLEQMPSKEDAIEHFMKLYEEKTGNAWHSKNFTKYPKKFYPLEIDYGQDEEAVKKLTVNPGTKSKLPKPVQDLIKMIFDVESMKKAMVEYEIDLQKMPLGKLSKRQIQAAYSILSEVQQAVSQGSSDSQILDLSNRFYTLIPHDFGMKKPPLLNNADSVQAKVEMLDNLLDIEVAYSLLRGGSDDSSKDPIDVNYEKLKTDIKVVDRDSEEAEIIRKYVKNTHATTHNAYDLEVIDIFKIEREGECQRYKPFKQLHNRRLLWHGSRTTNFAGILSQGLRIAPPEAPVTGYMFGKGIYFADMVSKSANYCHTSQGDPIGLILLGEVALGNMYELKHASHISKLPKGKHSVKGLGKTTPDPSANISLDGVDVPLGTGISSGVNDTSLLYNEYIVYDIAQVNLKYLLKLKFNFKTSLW
UniProt P11166: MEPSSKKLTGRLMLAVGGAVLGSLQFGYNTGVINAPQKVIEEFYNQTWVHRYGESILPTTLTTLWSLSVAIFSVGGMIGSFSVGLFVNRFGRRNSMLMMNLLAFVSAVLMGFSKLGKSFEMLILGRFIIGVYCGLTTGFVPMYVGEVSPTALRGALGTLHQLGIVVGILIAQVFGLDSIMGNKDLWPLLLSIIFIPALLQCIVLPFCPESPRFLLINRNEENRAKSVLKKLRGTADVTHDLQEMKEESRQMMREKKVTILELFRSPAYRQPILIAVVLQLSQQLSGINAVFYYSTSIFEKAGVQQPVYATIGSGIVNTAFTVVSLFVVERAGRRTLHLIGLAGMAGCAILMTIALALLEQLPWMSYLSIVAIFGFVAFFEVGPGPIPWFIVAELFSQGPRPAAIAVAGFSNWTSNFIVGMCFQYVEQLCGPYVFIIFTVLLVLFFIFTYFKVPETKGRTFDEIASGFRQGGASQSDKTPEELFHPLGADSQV
UniProt P62318: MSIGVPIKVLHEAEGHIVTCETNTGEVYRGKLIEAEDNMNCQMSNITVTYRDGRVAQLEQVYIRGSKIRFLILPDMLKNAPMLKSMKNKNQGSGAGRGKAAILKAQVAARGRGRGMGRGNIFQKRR
UniProt P61224: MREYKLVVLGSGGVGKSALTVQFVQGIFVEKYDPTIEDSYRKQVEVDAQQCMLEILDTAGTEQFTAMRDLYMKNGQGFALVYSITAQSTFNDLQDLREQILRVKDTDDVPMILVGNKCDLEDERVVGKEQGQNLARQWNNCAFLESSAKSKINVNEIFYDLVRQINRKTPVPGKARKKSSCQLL
UniProt O14744: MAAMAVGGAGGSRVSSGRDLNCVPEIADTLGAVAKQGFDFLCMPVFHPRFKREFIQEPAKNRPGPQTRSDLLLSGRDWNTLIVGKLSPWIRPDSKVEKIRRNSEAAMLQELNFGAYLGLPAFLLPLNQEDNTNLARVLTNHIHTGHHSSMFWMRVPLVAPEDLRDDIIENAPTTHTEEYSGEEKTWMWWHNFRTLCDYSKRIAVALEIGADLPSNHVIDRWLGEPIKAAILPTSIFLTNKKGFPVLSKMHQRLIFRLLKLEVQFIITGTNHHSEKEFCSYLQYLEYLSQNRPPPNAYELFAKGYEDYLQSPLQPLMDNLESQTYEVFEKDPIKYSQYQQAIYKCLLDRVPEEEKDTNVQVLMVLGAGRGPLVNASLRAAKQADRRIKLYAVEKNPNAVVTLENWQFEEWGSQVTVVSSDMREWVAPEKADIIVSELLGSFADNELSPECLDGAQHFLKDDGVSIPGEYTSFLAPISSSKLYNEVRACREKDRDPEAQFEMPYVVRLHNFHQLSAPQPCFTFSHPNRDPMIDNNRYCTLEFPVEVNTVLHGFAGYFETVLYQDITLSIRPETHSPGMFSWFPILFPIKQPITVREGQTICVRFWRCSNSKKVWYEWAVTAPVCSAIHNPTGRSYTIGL
UniProt P19525: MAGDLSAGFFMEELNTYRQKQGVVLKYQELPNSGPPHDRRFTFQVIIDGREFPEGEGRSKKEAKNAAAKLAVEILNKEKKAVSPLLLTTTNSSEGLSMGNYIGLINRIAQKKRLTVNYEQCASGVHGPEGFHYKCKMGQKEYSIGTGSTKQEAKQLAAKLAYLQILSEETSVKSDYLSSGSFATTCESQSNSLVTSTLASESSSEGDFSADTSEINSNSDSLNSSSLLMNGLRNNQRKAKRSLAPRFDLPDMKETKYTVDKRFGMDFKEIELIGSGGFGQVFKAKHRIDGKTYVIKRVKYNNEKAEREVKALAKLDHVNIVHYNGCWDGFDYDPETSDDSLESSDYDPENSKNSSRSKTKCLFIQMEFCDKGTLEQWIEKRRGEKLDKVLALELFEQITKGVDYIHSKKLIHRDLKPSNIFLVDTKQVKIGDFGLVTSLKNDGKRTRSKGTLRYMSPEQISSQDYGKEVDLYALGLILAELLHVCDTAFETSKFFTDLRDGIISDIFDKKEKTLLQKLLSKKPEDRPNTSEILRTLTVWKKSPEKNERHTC
UniProt Q92841: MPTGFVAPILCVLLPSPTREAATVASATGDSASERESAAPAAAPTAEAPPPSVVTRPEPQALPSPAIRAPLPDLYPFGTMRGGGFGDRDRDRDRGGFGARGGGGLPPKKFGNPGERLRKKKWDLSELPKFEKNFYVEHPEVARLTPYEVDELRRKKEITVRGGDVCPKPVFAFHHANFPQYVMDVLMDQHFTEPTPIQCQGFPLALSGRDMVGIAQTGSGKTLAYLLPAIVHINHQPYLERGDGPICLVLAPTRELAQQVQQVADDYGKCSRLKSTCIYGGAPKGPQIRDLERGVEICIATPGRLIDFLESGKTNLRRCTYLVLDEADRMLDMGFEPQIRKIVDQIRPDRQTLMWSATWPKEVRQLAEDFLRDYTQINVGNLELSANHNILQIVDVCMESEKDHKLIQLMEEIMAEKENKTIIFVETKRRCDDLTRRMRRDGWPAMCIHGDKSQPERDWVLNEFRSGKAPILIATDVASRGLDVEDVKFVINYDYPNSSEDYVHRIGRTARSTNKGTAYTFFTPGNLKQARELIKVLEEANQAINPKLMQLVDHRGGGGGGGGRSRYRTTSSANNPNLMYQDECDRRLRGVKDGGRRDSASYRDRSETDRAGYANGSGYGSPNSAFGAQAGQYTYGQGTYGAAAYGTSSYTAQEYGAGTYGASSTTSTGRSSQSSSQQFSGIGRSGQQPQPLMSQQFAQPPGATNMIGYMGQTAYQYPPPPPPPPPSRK
UniProt P11940: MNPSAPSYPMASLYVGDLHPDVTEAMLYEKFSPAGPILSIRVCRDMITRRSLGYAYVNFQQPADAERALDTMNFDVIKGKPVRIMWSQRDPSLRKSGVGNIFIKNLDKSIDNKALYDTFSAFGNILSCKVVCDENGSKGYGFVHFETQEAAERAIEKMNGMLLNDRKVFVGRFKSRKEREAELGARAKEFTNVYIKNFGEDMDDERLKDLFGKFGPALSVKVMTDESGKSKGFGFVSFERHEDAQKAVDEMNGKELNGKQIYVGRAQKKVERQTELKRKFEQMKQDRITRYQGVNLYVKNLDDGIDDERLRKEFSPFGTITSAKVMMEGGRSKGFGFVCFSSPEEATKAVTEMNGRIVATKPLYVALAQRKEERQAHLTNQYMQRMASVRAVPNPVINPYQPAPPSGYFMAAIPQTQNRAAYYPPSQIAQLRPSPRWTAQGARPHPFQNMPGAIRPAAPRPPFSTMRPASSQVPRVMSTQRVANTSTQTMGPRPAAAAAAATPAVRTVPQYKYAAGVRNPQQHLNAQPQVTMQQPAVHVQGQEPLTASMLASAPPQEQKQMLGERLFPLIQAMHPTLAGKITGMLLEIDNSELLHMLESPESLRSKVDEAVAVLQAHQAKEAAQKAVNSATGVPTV
UniProt Q07955: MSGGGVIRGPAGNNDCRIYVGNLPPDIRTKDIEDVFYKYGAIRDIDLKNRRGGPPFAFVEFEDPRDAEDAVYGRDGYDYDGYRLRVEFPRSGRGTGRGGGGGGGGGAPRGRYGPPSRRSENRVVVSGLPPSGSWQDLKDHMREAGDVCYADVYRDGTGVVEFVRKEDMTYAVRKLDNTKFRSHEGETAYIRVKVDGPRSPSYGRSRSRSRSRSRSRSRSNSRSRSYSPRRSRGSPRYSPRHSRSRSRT
UniProt P16403: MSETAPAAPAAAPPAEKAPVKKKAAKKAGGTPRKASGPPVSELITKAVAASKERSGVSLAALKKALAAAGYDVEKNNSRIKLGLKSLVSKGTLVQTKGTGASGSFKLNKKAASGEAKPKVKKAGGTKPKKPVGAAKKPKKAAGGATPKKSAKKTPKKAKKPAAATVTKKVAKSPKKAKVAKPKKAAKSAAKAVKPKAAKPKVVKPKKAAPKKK
UniProt Q99459: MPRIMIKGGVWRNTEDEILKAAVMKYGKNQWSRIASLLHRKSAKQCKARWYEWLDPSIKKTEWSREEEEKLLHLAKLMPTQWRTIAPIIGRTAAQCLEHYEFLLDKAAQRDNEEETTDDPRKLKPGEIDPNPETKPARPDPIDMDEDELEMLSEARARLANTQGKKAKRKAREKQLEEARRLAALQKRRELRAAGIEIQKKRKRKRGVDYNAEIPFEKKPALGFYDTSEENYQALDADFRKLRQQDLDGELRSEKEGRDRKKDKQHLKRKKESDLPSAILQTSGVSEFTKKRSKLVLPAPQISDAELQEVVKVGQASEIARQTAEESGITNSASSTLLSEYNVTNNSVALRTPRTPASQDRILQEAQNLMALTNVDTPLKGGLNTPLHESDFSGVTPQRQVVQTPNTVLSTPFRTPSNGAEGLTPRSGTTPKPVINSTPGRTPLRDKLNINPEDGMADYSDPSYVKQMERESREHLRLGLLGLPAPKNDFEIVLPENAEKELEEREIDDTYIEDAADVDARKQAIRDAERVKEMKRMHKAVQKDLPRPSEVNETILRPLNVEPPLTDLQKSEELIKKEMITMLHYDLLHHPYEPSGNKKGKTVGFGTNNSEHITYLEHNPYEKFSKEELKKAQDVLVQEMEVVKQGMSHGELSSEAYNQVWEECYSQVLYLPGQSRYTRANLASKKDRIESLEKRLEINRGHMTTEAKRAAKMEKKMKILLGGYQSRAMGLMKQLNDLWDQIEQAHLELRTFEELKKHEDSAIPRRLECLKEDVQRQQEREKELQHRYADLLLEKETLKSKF

B1: DCD (protein, UniProt P81605 20-110)
chain: YDPEAASAPGSGNPCHEASAAQKENAGEDPGLARQAPKPRKQRSSLLEKGLDGAKKAVGGLGKLGKDAVEDLESVGKGAVHDVKDVLDSVL
B2: CCT2 (protein, UniProt P78371 1-535)
chain: MASLSLAPVNIFKAGADEERAETARLTSFIGAIAIGDLVKSTLGPKGMDKILLSSGRDASLMVTNDGATILKNIGVDNPAAKVLVDMSRVQDDEVGDGTTSVTVLAAELLREAESLIAKKIHPQTIIAGWREATKAAREALLSSAVDHGSDEVKFRQDLMNIAGTTLSSKLLTHHKDHFTKLAVEAVLRLKGSGNLEAIHIIKKLGGSLADSYLDEGFLLDKKIGVNQPKRIENAKILIANTGMDTDKIKIFGSRVRVDSTAKVAEIEHAEKEKMKEKVERILKHGINCFINRQLIYNYPEQLFGAAGVMAIEHADFAGVERLALVTGGEIASTFDHPELVKLGSCKLIEEVMIGEDKLIHFSGVALGEACTIVLRGATQQILDEAERSLHDALCVLAQTVKDSRTVYGGGCSEMLMAHAVTQLANRTPGKEAVAMESYAKALRMLPTIIADNAGYDSADLVAQLRAAHSEGNTTAGLDMREGTIGDMAILGITESFQVKRQVLLSAAEAAEVILRVDNIIKAAPRKRVPDHHPC
B3: SART1 (protein, UniProt O43290 1-800)
chain: MGSSKKHRGEKEAAGTTAAAGTGGATEQPPRHREHKKHKHRSGGSGGSGGERRKRSRERGGERGSGRRGAEAEARSSTHGRERSQAEPSERRVKREKRDDGYEAAASSKTSSGDASSLSIEETNKLRAKLGLKPLEVNAIKKEAGTKEEPVTADVINPMALRQREELREKLAAAKEKRLLNQKLGKIKTLGEDDPWLDDTAAWIERSRQLQKEKDLAEKRAKLLEEMDQEFGVSTLVEEEFGQRRQDLYSARDLQGLTVEHAIDSFREGETMILTLKDKGVLQEEEDVLVNVNLVDKERAEKNVELRKKKPDYLPYAEDESVDDLAQQKPRSILSKYDEELEGERPHSFRLEQGGTADGLRERELEEIRAKLRLQAQSLSTVGPRLASEYLTPEEMVTFKKTKRRVKKIRKKEKEVVVRADDLLPLGDQTQDGDFGSRLRGRGRRRVSEVEEEKEPVPQPLPSDDTRVENMDISDEEEGGAPPPGSPQVLEEDEAELELQKQLEKGRRLRQLQQLQQLRDSGEKVVEIVKKLESRQRGWEEDEDPERKGAIVFNATSEFCRTLGEIPTYGLAGNREEQEELMDFERDEERSANGGSESDGEENIGWSTVNLDEEKQQQDFSASSTTILDEEPIVNRGLAAALLLCQNKGLLETTVQKVARVKAPNKSLPSAVYCIEDKMAIDDKYSRREEYRGFTQDFKEKDGYKPDVKIEYVDETGRKLTPKEAFRQLSHRFHGKGSGKMKTERRMKKLDEEALLKKMSSSDTPLGTVALLQEKQKAQKTPYIVLSGSGKSMNANTITK
B4: HNRPM (protein, UniProt P52272 1-730)
chain: MAAGVEAAAEVAATEIKMEEESGAPGVPSGNGAPGPKGEGERPAQNEKRKEKNIKRGGNRFEPYANPTKRYRAFITNIPFDVKWQSLKDLVKEKVGEVTYVELLMDAEGKSRGCAVVEFKMEESMKKAAEVLNKHSLSGRPLKVKEDPDGEHARRAMQKVMATTGGMGMGPGGPGMITIPPSILNNPNIPNEIIHALQAGRLGSTVFVANLDYKVGWKKLKEVFSMAGVVVRADILEDKDGKSRGIGTVTFEQSIEAVQAISMFNGQLLFDRPMHVKMDERALPKGDFFPPERPQQLPHGLGGIGMGLGPGGQPIDANHLNKGIGMGNIGPAGMGMEGIGFGINKMGGMEGPFGGGMENMGRFGSGMNMGRINEILSNALKRGEIIAKQGGGGGGGSVPGIERMGPGIDRLGGAGMERMGAGLGHGMDRVGSEIERMGLVMDRMGSVERMGSGIERMGPLGLDHMASSIERMGQTMERIGSGVERMGAGMGFGLERMAAPIDRVGQTIERMGSGVERMGPAIERMGLSMERMVPAGMGAGLERMGPVMDRMATGLERMGANNLERMGLERMGANSLERMGLERMGANSLERMGPAMGPALGAGIERMGLAMGGGGGASFDRAIEMERGNFGGSFAGSFGGAGGHAPGVARKACQIFVRNLPFDFTWKMLKDKFNECGHVLYADIKMENGKSKGCGVVKFESPEVAERACRMMNGMKLSGREIDVRIDRNA
B5: ATP5F1 (protein, UniProt P24539 43-256)
chain: PVPPLPEYGGKVRYGLIPEEFFQFLYPKTGVTGPYVLGTGLILYALSKEIYVISAETFTALSVLGVMVYGIKKYGPFVADFADKLNEQKLAQLEEAKQASIQHIQNAIDTEKSQQALVQKRHYLFDVQRNNIAMALEVTYRERLYRVYKEVKNRLDYHISVQNMMRRKEQEHMINWVEKHVVQSISTQQEKETIAKCIADLKLLAKKAQAQPVM
B6: U2AF1 (protein, UniProt Q01081 1-240)
chain: MAEYLASIFGTEKDKVNCSFYFKIGACRHGDRCSRLHNKPTFSQTIALLNIYRNPQNSSQSADGLRCAVSDVEMQEHYDEFFEEVFTEMEEKYGEVEEMNVCDNLGDHLVGNVYVKFRREEDAEKAVIDLNNRWFNGQPIHAELSPVTDFREACCRQYEMGECTRGGFCNFMHLKPISRELRRELYGRRRKKHRSRSRSRERRSRSRDRGRGGGGGGGGGGGGRERDRRRSRDRERSGRF
B7: XRN2 (protein, UniProt Q9H0D6 1-950)
chain: MGVPAFFRWLSRKYPSIIVNCVEEKPKECNGVKIPVDASKPNPNDVEFDNLYLDMNGIIHPCTHPEDKPAPKNEDEMMVAIFEYIDRLFSIVRPRRLLYMAIDGVAPRAKMNQQRSRRFRASKEGMEAAVEKQRVREEILAKGGFLPPEEIKERFDSNCITPGTEFMDNLAKCLRYYIADRLNNDPGWKNLTVILSDASAPGEGEHKIMDYIRRQRAQPNHDPNTHHCLCGADADLIMLGLATHEPNFTIIREEFKPNKPKPCGLCNQFGHEVKDCEGLPREKKGKHDELADSLPCAEGEFIFLRLNVLREYLERELTMASLPFTFDVERSIDDWVFMCFFVGNDFLPHLPSLEIRENAIDRLVNIYKNVVHKTGGYLTESGYVNLQRVQMIMLAVGEVEDSIFKKRKDDEDSFRRRQKEKRKRMKRDQPAFTPSGILTPHALGSRNSPGSQVASNPRQAAYEMRMQNNSSPSISPNTSFTSDGSPSPLGGIKRKAEDSDSEPEPEDNVRLWEAGWKQRYYKNKFDVDAADEKFRRKVVQSYVEGLCWVLRYYYQGCASWKWYYPFHYAPFASDFEGIADMPSDFEKGTKPFKPLEQLMGVFPAASGNFLPPSWRKLMSDPDSSIIDFYPEDFAIDLNGKKYAWQGVALLPFVDERRLRAALEEVYPDLTPEETRRNSLGGDVLFVGKHHPLHDFILELYQTGSTEPVEVPPELCHGIQGKFSLDEEAILPDQIVCSPVPMLRDLTQNTVVSINFKDPQFAEDYIFKAVMLPGARKPAAVLKPSDWEKSSNGRQWKPQLGFNRDRRPVHLDQAAFRTLGHVMPRGSGTGIYSNAAPPPVTYQGNLYRPLLRGQAQIPKLMSNMRPQDSWRGPPPLFQQQRFDRGVGAEPLLPWNRMLQTQNAAFQPNQYQMLAGPGGYPPRRDDRGGRQGYPREGRKYPLPPPSGRYNWN

Results are given in words; binding and its absence hold for the method and conditions named. Binding seen in cells or lysates may run through a third protein. A yes stands for co-enrichment or nearness to the bait. Other partners may have been found.

The target in the experiment is T1, TAR-RNA binding protein 2 (human) (UniProt Q15633).
T1 sequence: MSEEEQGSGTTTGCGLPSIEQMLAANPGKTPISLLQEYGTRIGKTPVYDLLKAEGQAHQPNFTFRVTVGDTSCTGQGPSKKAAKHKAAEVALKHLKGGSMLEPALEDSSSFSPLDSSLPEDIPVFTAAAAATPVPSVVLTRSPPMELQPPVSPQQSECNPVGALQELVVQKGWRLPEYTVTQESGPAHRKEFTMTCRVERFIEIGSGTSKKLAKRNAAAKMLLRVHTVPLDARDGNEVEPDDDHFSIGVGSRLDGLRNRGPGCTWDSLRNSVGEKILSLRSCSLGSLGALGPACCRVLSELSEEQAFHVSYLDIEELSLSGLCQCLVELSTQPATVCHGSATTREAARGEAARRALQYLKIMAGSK
Briefly: affinity purification with mass spectrometry; lysates of HeLa cells overexpressing Flag-TRBP immunoprecipitated with monoclonal anti-Flag agarose, eluted with 3X Flag polypeptides, SDS gel, fifteen Coomassie bands excised and analysed by LC-MS/MS; identifications of the mock-transfected sample subtracted.
Regarding DBN1 (from UniProt Q16643 1-649), the binding entry is reported as “binds”. For the molecule HMGA1 (from UniProt P17096 1-107), the binding entry was “binds”. Under PARP1 (from UniProt P09874 1-1014) stands “binds”; under DIDO1 (from UniProt Q9BTC0 1-2240), “binds”; under SLC2A1 (from UniProt P11166 1-492), “binds”. Take SNRPD3 (from UniProt P62318 1-126): the binding result is “binds”. Consider DDX5 (from UniProt P17844 1-614), for which the binding result is “binds”.

As for HNRPAB (from UniProt Q99729 1-332), the binding entry is listed as “binds”. Under RAP1B (from UniProt P61224 1-184) stands “binds”; under CHD4 (from UniProt Q14839 1-1912), “binds”; under SOX21 (from UniProt Q9Y651 1-276), “binds”. Take PRMT5 (from UniProt O14744 1-637): the binding entry is on record as “binds”.

For the molecule DDX54 (from UniProt Q8TDD1 1-881), the binding result is listed as “binds”. Consider AKAP13 (from UniProt Q12802 1-2813), for which the binding result is recorded as “binds”. The value for EEF1A2 (from UniProt Q05639 1-463) was “binds”; that for DNAJA3 (human (endogenous in HeLa)) was “binds”.

As to EIF2AK2 (from UniProt P19525 1-551), the binding entry is reported as “binds”. With ATP5B (from UniProt P06576 48-529), the binding result is recorded as “binds”. Under EIF2S1 (from UniProt P05198 1-315) stands “binds”; under DDX17 (from UniProt Q92841 1-729), “binds”.

Take PABPC1 (from UniProt P11940 1-636): the binding entry was “binds”. With PPP1R9B (from UniProt Q96SB3 1-817), the binding result was “binds”. For PTBP1 (from UniProt P26599 1-557), the binding entry is recorded as “binds”. Under RBBP4 (from UniProt Q09028 1-425) stands “binds”.

On to ABCF1 (from UniProt Q8NE71 1-845), for which the binding entry is reported as “binds”. The value for SFRS1 (from UniProt Q07955 1-248) was “binds”.

Regarding HIST1H1C (from UniProt P16403 1-213), the binding result was “binds”. Under TOP1 (from UniProt P11387 1-765) stands “binds”; under CDC5L (from UniProt Q99459 1-802), “binds”; under SYNCRIP (from UniProt O60506 1-623), “binds”. As for B1, the binding result is “binds”. Under B2 stands “binds”. The value for B3 was “binds”; that for B4 was “binds”. Consider B5, for which the binding entry is on record as “binds”.

As to B6, the binding entry is listed as “binds”. The value for B7 was “binds”.
